Here are results for two sequences from publication PMC6819594, “Screening antiproliferative drug for breast cancer from bisbenzylisoquinoline alkaloid tetrandrine and fangchinoline derivatives by targeting BLM helicase” (BMC Cancer, 2019).

Protein sequences, listed by entry. Tags and fused reporters are not part of them. Residues count along the entry.
UniProt P54132, 642-1290: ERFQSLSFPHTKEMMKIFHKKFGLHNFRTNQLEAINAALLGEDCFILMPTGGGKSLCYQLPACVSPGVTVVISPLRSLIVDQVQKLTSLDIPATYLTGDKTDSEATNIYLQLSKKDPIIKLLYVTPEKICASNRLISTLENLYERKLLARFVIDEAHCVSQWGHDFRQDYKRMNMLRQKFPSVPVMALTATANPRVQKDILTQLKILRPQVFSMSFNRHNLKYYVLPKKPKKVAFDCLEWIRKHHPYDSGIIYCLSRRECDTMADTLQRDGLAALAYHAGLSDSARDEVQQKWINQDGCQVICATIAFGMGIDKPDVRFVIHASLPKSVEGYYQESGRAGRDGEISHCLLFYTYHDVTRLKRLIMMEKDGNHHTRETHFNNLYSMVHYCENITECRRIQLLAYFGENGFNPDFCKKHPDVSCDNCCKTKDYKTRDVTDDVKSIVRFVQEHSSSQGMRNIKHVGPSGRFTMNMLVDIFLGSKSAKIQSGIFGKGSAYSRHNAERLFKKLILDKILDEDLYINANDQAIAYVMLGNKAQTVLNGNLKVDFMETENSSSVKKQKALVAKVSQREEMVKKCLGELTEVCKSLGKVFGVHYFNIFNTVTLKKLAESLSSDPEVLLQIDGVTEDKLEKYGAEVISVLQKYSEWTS

The target in series [1] is BLM642-1290 helicase (UniProt P54132). In words: fluorescence anisotropy. As to conditions: 20 mM Tris pH 7.9, 25 mM NaCl, 3 mM MgCl2, 0.1 mM DTT, FP temperature not stated, recombinant protein, residues 642-1290. A general note: Fluorescence polarisation rises when a labelled molecule tumbles more slowly, as on binding a larger partner.
Series [2] has the same target. In words: EMSA. As to conditions: 20 mM Tris pH 7.9, 25 mM NaCl, 3 mM MgCl2, 0.1 mM DTT, EMSA at room temperature 45 min, recombinant protein, residues 642-1290, label: 3' fluorescein (FAM) on strand 2.

The exact form of at least one protein or probe is not confirmed. The comparison behind a weaker result is the experiment's own reference, which may not be listed here. At least one verdict was read from the data and is not stated in words by the source.

On to “CCTAACTCTGCTCGACGGATT [ssDNA (21 nt) A2]”, for which the binding result with BLM642-1290 helicase [1] (6.67 uM mitomycin C (8% inhibition, inhibitor Ki 3.62 +/- 0.84 uM), label: 3' fluorescein (FAM), single-stranded DNA) was “binds more weakly”; in the series with BLM642-1290 helicase [1] (33.34 uM HJNO (46.72% inhibition, inhibitor Ki 21.39 +/- 1.76 uM), label: 3' fluorescein (FAM), single-stranded DNA), “binds more weakly”; with BLM642-1290 helicase [1] (3 mM Mg2+, 500 nM BLM, 2 nM DNA, no inhibitor, label: 3' fluorescein (FAM), single-stranded DNA), “binds”.
With “AATCCGTCGAGCAGAGTTAGGTTAGGTTAGGTTAGTTTTTTTTTT / CCTAACTCTGCTCGACGGATT [dsDNA A1A2]”, the binding result was “binds” with BLM642-1290 helicase [2] (3 mM Mg2+, 2.5 uM BLM, no inhibitor); “binds more weakly” with BLM642-1290 helicase [2] (0.335 and 3.35 uM HJNO); “binds more weakly” in the series with BLM642-1290 helicase [2] (<0.05 uM mitomycin C); “binds more weakly” in the series with BLM642-1290 helicase [1] (33.34 uM HJNO (42.42% inhibition, inhibitor Ki 12.89 +/- 3.59 uM), label: 3' fluorescein (FAM) on strand 2); “binds” with BLM642-1290 helicase [1] (3 mM Mg2+, 500 nM BLM, 2 nM DNA, no inhibitor, label: 3' fluorescein (FAM) on strand 2).
